Changes are numbered by the printed parent chain. These are yes or no findings as the source states them, for the method shown. In cells and extracts the contact can be indirect. Some binding calls cover weakened binding; strength is not graded here. Sequences can lack the tags named with a protein.

In test [1] the target is T1, WT mTMIE-HA-Avi (mouse), Q8K467.
T1 chain: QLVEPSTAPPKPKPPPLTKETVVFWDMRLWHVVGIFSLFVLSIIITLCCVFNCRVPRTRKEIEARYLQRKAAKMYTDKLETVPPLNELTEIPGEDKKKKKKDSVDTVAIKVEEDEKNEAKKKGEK
As to the kind of experiment: pull-down; PK-HEK293T cells expressing Fyn-mTMC2-mCherry with WT or mutant mTMIE-HA-Avi; pull-down with NeutrAvidin beads; western blots; three experiments. As to conditions: remark: other sources report otherwise. In general terms: In western blotting, separated proteins are transferred to a membrane and probed.

Test [2] concerns the target T2, C76SC77S mTMIE-HA-Avi (mouse) (UniProt Q8K467).
T2 sequence: T1 chain with C48S, C49S
The test is described as above.

B1: Fyn-mTMC2-mCherry, Q8R4P4 1-888 (protein)
chain: MSPQLKSLDEEGDKSARRPTRKQTSRAACPQDGHRAQSSRKDPAKGSPRPGSSRKKQMEHGSYHKGLQGQKPRKVERSLQGRKKDRRTSLKEQRASPKKEREALRKEAGKQLRKPRSTSLGSSVSTGDSLSEEELAQILEQVEEKKKLITTVRNKPWPMAKKLRELREAQAFVEKYEGALGKGKGKHLYAYRMMMAKKWVKFKRDFDNFKTQCIPWEMKIKDIESHFGSSVASYFIFLRWMYGVNLVLFGLIFGLVIIPEVLMGMPYGSIPRKTVPRAEEERAMDFSVLWDFEGYIKYSALFYGYYNNQRTIGWLRYRLPMAYFMVGVSVFGYSLMIVIRSMASNTQGSTSEGDSDSFTFSFKMFTSWDYLIGNSETADNKYVSITTSFKESIVDEQESNKEGNIHLTRFLRVLANFLILCCLCGSGYLIYFVVKRSQEFSKMQNVSWYERNEVEIVMSLLGMFCPPLFETIAALENYHPRTGLKWQLGRIFALFLGNLYTFLLALMDDVHLKLSNEEKIKNITHWTLFNYYNSSGGNESVPRPPPHPADVPRGSCWETAVGIEFMRLTVSDMLVTYLTILVGDFLRACFVRFMNHCWCWDLEAGFPSYAEFDISGNVLGLIFNQGMIWMGSFYAPGLVGINVLRLLTSMYFQCWAVMSSNVPHERVFKASRSNNFYMGLLLLVLFLSLLPVAYTVMSLPPSFDCGPFSGKNRMYDVLHETIENDFPKFLGKIFAFLANPGLIIPAILLMFLAIYYLNSVSKSLSRANAQLRKKIQALREVEKNHKSIKGKAIVTYSEDTIKNSSKNATQIHLTKEEPTSHSSSQIQTLDKKAQGPHTSSTEGGASPSTSWHHVGSQPPRGRRDSGQPQSQTYTGRSPSGKRTQRPHN
Take B1: the binding entry in test [1] is “binds”.

B2: Fyn-mTMC2-mCherry (protein, UniProt Q8R4P4 1-888)
chain: B1 chain
In the case of B2, in test [2], the binding entry is “binds”.

For the origin of these results see PMC11892609.
